Values from PubChem BioAssay AID504808 (Drosophila RNAi Screening Center, 2011)
In all, the deposit lists about 21,000 reagents; below is a random part of those with a known target gene and a result. Of all reagents, 18 (0.084%) are marked active. 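Raw counts without plate normalisation, one of two replicates; the ratio scores behind the calls were not deposited.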 A number with no mark means an inactive call. Names joined by + are all predicted targets of the reagent. No sequences are given here. Not given: the amount of reagent, the time to read-out.

Screen: 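Genes whose loss lifts activity of an E2F-responsive reporter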 (primary screen)
Cells: Drosophila S2 cells
Knock-down reagent: long dsRNA against Drosophila genes
Detection: 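Dual luciferase plate measurements; E2F-specific signal taken as firefly over Renilla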
Direction: E2F firefly: higher = more E2F reporter activity; Renilla normaliser: higher = more normaliser reporter signal
Hit rule: 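Called active if the normalised E2F reporter went up by over 50%; the cutoff is arbitrary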

Which result is listed for CG14118 [DRSC10122]?
E2F firefly, rep 1: 1.29e5; Renilla normaliser, rep 1: 7309

How did the screen score Galt [DRSC03161]?
E2F firefly, rep 1: 66391; Renilla normaliser, rep 1: 3334

For CG12995 [DRSC19515], what was measured?
E2F firefly, rep 1: 1.59e5; Renilla normaliser, rep 1: 6343

What did the screen give for CR40450 + CG32767 [DRSC18387]?
E2F firefly, rep 1: 7234; Renilla normaliser, rep 1: 772

With Ir41a [DRSC04730], how do the results read?
E2F firefly, rep 1: 1.30e5; Renilla normaliser, rep 1: 6274

What did the screen give for Ir41a [DRSC04875]?
E2F firefly, rep 1: 1.12e5; Renilla normaliser, rep 1: 4330

What is on record for CG4116 [DRSC18348]?
E2F firefly, rep 1: 1.26e5; Renilla normaliser, rep 1: 6551

For Shmt [DRSC18264], how do the results read?
E2F firefly, rep 1: 1.11e5; Renilla normaliser, rep 1: 5714

What is on record for CG2150 [DRSC15420]?
E2F firefly, rep 1: 86878; Renilla normaliser, rep 1: 4730

For Nup75 [DRSC06947], what was measured?
E2F firefly, rep 1: 66127; Renilla normaliser, rep 1: 3187

For L [DRSC06666], what does the deposit list?
E2F firefly, rep 1: 1.03e5; Renilla normaliser, rep 1: 4583

With L [DRSC06668], how do the results read?
E2F firefly, rep 1: 1.01e5; Renilla normaliser, rep 1: 4019

What did the screen give for Acbp1 [DRSC03093]?
E2F firefly, rep 1: 1.57e5; Renilla normaliser, rep 1: 5578

With CG11504 [DRSC14318], how do the results read?
E2F firefly, rep 1: 1887; Renilla normaliser, rep 1: 848

What is on record for CG31883 [DRSC02561]?
E2F firefly, rep 1: 84140; Renilla normaliser, rep 1: 2878

What is on record for Tcs4 [DRSC19587]?
E2F firefly, rep 1: 1.65e5; Renilla normaliser, rep 1: 5614

How did the screen score yps [DRSC11411]?
E2F firefly, rep 1: 1.38e5; Renilla normaliser, rep 1: 6554

Which result is listed for CG9393 [DRSC16486]?
E2F firefly, rep 1: 80623; Renilla normaliser, rep 1: 3424

How did the screen score Ric [DRSC07532]?
E2F firefly, rep 1: 1.50e5; Renilla normaliser, rep 1: 4860

With mio [DRSC00692], how do the results read?
E2F firefly, rep 1: 79913; Renilla normaliser, rep 1: 2917

What is on record for Ubc84D [DRSC12610]?
E2F firefly, rep 1: 1.44e5; Renilla normaliser, rep 1: 5861

With CG6830 [DRSC16124], what was measured?
E2F firefly, rep 1: 1.54e5; Renilla normaliser, rep 1: 6902

3 entries already listed, ordered by “Renilla normaliser, rep 1”, low to high.
CR40450 + CG32767 [DRSC18387]: E2F firefly, rep 1 = 7234; Renilla normaliser, rep 1 = 772
Ir41a [DRSC04730]: E2F firefly, rep 1 = 1.30e5; Renilla normaliser, rep 1 = 6274
CG12995 [DRSC19515]: E2F firefly, rep 1 = 1.59e5; Renilla normaliser, rep 1 = 6343

Further records follow.
How did the screen score az2 [DRSC07580]?
E2F firefly, rep 1: 80627; Renilla normaliser, rep 1: 3898

What did the screen give for psd [DRSC03131]?
E2F firefly, rep 1: 1.44e5; Renilla normaliser, rep 1: 4793

What did the screen give for Mur29B [DRSC01018]?
E2F firefly, rep 1: 1.35e5; Renilla normaliser, rep 1: 6113

How did the screen score Mur29B [DRSC02376]?
E2F firefly, rep 1: 1.41e5; Renilla normaliser, rep 1: 5357

What is on record for CG10301 [DRSC14226]?
E2F firefly, rep 1: 1.09e5; Renilla normaliser, rep 1: 5589

For CG7889 [DRSC20066], how do the results read?
E2F firefly, rep 1: 1.72e5; Renilla normaliser, rep 1: 5420

How did the screen score Miga [DRSC17821]?
E2F firefly, rep 1: 88717; Renilla normaliser, rep 1: 4716

What is on record for endos [DRSC10658]?
E2F firefly, rep 1: 75329; Renilla normaliser, rep 1: 18

What did the screen give for CG31913 [DRSC00892]?
E2F firefly, rep 1: 1.30e5; Renilla normaliser, rep 1: 5517

With Send2 [DRSC01906], what was measured?
E2F firefly, rep 1: 1.07e5; Renilla normaliser, rep 1: 4303

For CG30222 [DRSC04125], what does the deposit list?
E2F firefly, rep 1: 96405; Renilla normaliser, rep 1: 4301

For CG30222 [DRSC04262], what was measured?
E2F firefly, rep 1: 1.03e5; Renilla normaliser, rep 1: 4323

How did the screen score CG31528 [DRSC12003]?
E2F firefly, rep 1: 92564; Renilla normaliser, rep 1: 3982

What is on record for hh [DRSC16965]?
E2F firefly, rep 1: 1.13e5; Renilla normaliser, rep 1: 5516
